{"source": "PubChem BioAssay AID1259308 (NCATS, 2017)", "assay": "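Knock-downs that increase output of a recombinant reporter protein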 (primary screen)", "system": "human HEK293 embryonic kidney cells stably expressing firefly luciferase (HEK-CMV-Luc2-Hygro)", "reagents": "single siRNA against human genes, 0.8 pmol siRNA per well", "time to read-out": "72 h", "detection": "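Reporter luminescence and viable-cell signal on separate replicate plates, given as percent of non-targeting control and median/MAD z-scores, plus per-cell luciferase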", "scale": "total luciferase, z-score: higher = more reporter protein produced", "active means": "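An siRNA counts as active if its total luciferase robust z-score exceeds 3; genes with two or more such siRNAs out of three were retested with fresh siRNAs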", "calls": "active = raised luciferase; inactive = no rise", "note": "In all, the deposit lists about 59,000 reagents; shown is a part drawn at random. Of all reagents, about 1,510 (2.6%) are marked active. 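Calls use total luciferase alone and ignore viability, so some active siRNAs may act by altering cell number.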 Entries without a mark were called inactive. Further read-outs or replicates are left out here. No sequences are given here."}
{"target gene": "AK4P3", "PubChem SID": "SID160725833", "total luciferase, z-score": "4.44 (active)"}
{"target gene": "AK4P3", "PubChem SID": "SID160725834", "total luciferase, z-score": -0.485}
{"target gene": "AK4P3", "PubChem SID": "SID160769622", "total luciferase, z-score": 0.565}
{"target gene": "GATAD2B", "PubChem SID": "SID160731597", "total luciferase, z-score": 0.101}
{"target gene": "GATAD2B", "PubChem SID": "SID160746004", "total luciferase, z-score": -0.846}
{"target gene": "GATAD2B", "PubChem SID": "SID160746005", "total luciferase, z-score": -1.99}
{"target gene": "MFNG", "PubChem SID": "SID160777194", "total luciferase, z-score": -0.0227}
{"target gene": "MFNG", "PubChem SID": "SID160777195", "total luciferase, z-score": 0.0908}
{"target gene": "MFNG", "PubChem SID": "SID160777196", "total luciferase, z-score": -0.793}
{"target gene": "EXD3", "PubChem SID": "SID160742527", "total luciferase, z-score": -1.06}
{"target gene": "EXD3", "PubChem SID": "SID160742528", "total luciferase, z-score": 2.61}
{"target gene": "EXD3", "PubChem SID": "SID160742529", "total luciferase, z-score": -0.0692}
{"target gene": "MRPL33", "PubChem SID": "SID160722488", "total luciferase, z-score": -0.601}
{"target gene": "MRPL33", "PubChem SID": "SID160722489", "total luciferase, z-score": -1.22}
{"target gene": "MRPL33", "PubChem SID": "SID160735234", "total luciferase, z-score": -1.68}
{"target gene": "CCDC122", "PubChem SID": "SID160759808", "total luciferase, z-score": -0.23}
{"target gene": "CCDC122", "PubChem SID": "SID160759809", "total luciferase, z-score": 1.45}
{"target gene": "CCDC122", "PubChem SID": "SID160759810", "total luciferase, z-score": -0.766}

Laid out differently: 4 of the entries above.
| target gene | PubChem SID | total luciferase, z-score |
| --- | --- | --- |
| EXD3 | SID160742529 | -0.0692 |
| MRPL33 | SID160722488 | -0.601 |
| MRPL33 | SID160722489 | -1.22 |
| MRPL33 | SID160735234 | -1.68 |

The results go on.
{"target gene": "LOC390877", "PubChem SID": "SID160725283", "total luciferase, z-score": 0.236}
{"target gene": "LOC390877", "PubChem SID": "SID160733262", "total luciferase, z-score": 0.606}
{"target gene": "LOC390877", "PubChem SID": "SID160766585", "total luciferase, z-score": 0.572}
{"target gene": "HPD", "PubChem SID": "SID160775280", "total luciferase, z-score": -0.366}
{"target gene": "HPD", "PubChem SID": "SID160775281", "total luciferase, z-score": -1.51}
{"target gene": "HPD", "PubChem SID": "SID160775282", "total luciferase, z-score": 0.405}
{"target gene": "APRT", "PubChem SID": "SID160719008", "total luciferase, z-score": -0.211}
{"target gene": "APRT", "PubChem SID": "SID160719019", "total luciferase, z-score": -0.38}
{"target gene": "APRT", "PubChem SID": "SID160731128", "total luciferase, z-score": 0.325}
{"target gene": "HBE1", "PubChem SID": "SID160723841", "total luciferase, z-score": -0.136}
{"target gene": "HBE1", "PubChem SID": "SID160731057", "total luciferase, z-score": "5.5 (active)"}
{"target gene": "HBE1", "PubChem SID": "SID160774864", "total luciferase, z-score": -0.837}
{"target gene": "XCL2", "PubChem SID": "SID160717584", "total luciferase, z-score": -0.438}
{"target gene": "XCL2", "PubChem SID": "SID160717585", "total luciferase, z-score": 0.377}
{"target gene": "XCL2", "PubChem SID": "SID160734205", "total luciferase, z-score": -1.98}
